Assay results as given in patent WO2017222556A2 (dated 2017).
These are yes or no findings as the source states them, for the method shown. Some entries that bind do so weakly or less than the wild type. For some of these results: Sequences can lack the tags named with a protein.

The chains behind the UniProt entries cited, without tags or fusion partners. Residues count along the entry.
UniProt P26718, residues 78-216: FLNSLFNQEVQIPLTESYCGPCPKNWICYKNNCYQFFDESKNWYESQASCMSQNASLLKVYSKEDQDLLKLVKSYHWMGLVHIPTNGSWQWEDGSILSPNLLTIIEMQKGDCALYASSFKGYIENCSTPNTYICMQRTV

T1: mouse NKG2D-Fc (mouse) (UniProt O54709)
T1 sequence (looked up): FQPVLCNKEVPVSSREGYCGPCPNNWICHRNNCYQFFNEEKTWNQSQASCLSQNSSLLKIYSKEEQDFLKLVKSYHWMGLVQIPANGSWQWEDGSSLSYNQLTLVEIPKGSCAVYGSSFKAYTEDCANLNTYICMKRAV

B1: al-a2 variant 17 (ligand)
chain: EPHSLRYNLTVLSWDGSVQSGFLTEVHLDGQPFLRCDRQKCRAKPQGQWAEDVLGNKTWDRETRDLTLWGKDLRMTLAHIKDQKEGLHSLQEIRVCEIHEDNSTRSSQHFYYDGELFLSQNLETLEWTMPQSSRAQTLAMNVRNFLKEDAMETDTHYHAMRADCLQELRRYLKSGVVLRRTVPPMVQVTRSEASGGSGDRVTITCRASQDVSTAVAWYQQKPGKAPKLLIYSASFLYSGVPSRFSGSGSGTDFTLTISSLQPEDFATYYCQQSYTTPPTFGQGTKVEIKGGSSRSSSSGGGGSGGGGEVQLVESGGGLVQPGGSLRLSCAASGFTFTSTGISWVRQAPGKGLEWVGRIYPTNGSTNYADSVKGRFTISADTSKNTAYLQMNSLRAEDTAVYYCARTYGIYDLYVDYTEYVMDYWGQGTLVTVSSGGSSRSSSSGGGGSGGGGDIQMTQSPSSLSASGGSGQITVTCRASGFYPWNITLSWRQDGVSLSHDTQQWGDVLPDGQGTYQTWVATRISQGEEQRFTCYMEHSGQHSTHPVPSGKGSHHHHHH
B2: al-a2 variant 18 (ligand)
chain: EPHSLRYNLTVLSWDGSVQPGFLTEVHLDGQPFLRCDRQKCRAKPQGQWAEDVLGNKTWDRETRDLTLWGKDLRMTLAHIKDQKEGLHSLQEIRVCEIHEDNSTRSSQHFYYDGELFLSQNLETLEWTMPQSSRAQTLAMNVRNFLKEDAMETDTHYHAMRADCLQELRRYLKSGVVLRRTVPPMVQVTRSEASGGSGDRVTITCRASQDVSTAVAWYQQKPGKAPKLLIYSASFLYSGVPSRFSGSGSGTDFTLTISSLQPEDFATYYCQQSYTTPPTFGQGTKVEIKGGSSRSSSSGGGGSGGGGEVQLVESGGGLVQPGGSLRLSCAASGFTFTSTGISWVRQAPGKGLEWVGRIYPTNGSTNYADSVKGRFTISADTSKNTAYLQMNSLRAEDTAVYYCARTYGIYDLYVDYTEYVMDYWGQGTLVTVSSGGSSRSSSSGGGGSGGGGDIQMTQSPSSLSASGGSGQITVTCRASGFYPWNITLSWRQDGVSLSHDTQQWGDVLPDGQGTYQTWVATRISQGEEQRFTCYMEHSGQHSTHPVPSGKGSHHHHHH
B3: al-a2 variant 20 (ligand)
chain: EPHSLRYNLTVLSWDGSVQSGFLTEVHLDGQPFLRCDRQKCRAKPQGQWAEDVLGNKTWDRETRDLTAWGKDLRMTLAHIKDQKEGLHSLQEIRVCEIHEDNSTRSSQHFYYDGELFLSQNLETLEWTMPQSSRAQTLAMNVRNFLKEDAMQTDTHYRAMHADCLFELRRYLKSGVVLRRTVPPMVQVTRSEASGGSGDRVTITCRASQDVSTAVAWYQQKPGKAPKLLIYSASFLYSGVPSRFSGSGSGTDFTLTISSLQPEDFATYYCQQSYTTPPTFGQGTKVEIKGGSSRSSSSGGGGSGGGGEVQLVESGGGLVQPGGSLRLSCAASGFTFTSTGISWVRQAPGKGLEWVGRIYPTNGSTNYADSVKGRFTISADTSKNTAYLQMNSLRAEDTAVYYCARTYGIYDLYVDYTEYVMDYWGQGTLVTVSSGGSSRSSSSGGGGSGGGGDIQMTQSPSSLSASGGSGQITVTCRASGFYPWNITLSWRQDGVSLSHDTQQWGDVLPDGQGTYQTWVATRISQGEEQRFTCYMEHSGQHSTHPVPSGKGSHHHHHH

Key:
human NKG2D-Fc (human) [1] = target: human NKG2D-Fc (human) (UniProt P26718); assay: competition ELISA: inhibition of human NKG2D-Fc binding to plate-coated MICA
mouse NKG2D-Fc (mouse) = target: T1, mouse NKG2D-Fc (mouse); assay: competition ELISA: inhibition of mouse NKG2D-Fc binding to plate-coated MICA
human NKG2D-Fc (human) [2] = target: human NKG2D-Fc (human) (UniProt P26718); assay: competition ELISA: inhibition of human NKG2D-Fc binding to plate-coated WT sMICA
[3] = target: biotinylated human NKG2D (human) (UniProt P26718); assay: biolayer interferometry (Octet), surface-coated biotinylated human NKG2D, titration 1-100 nM

Binder	binding (human NKG2D-Fc (human) [1])	binding (mouse NKG2D-Fc (mouse))	binding (human NKG2D-Fc (human) [2])	binding [3]
B1	binds	binds	binds	
B2	binds	binds	binds	
B3				binds
